Where “and” joins values, the source holds several entries; their conditions need not be identical. Identical values can stand only once. The list shows a part of the results. Each value is one well over the wells without odorant, computed here; the data are noisy.

The source of these data is the odorant receptor screen of Mainland et al. (2015).

In the first assay the test system is OR2W5 clone 1506. Kind of assay: odorant receptor activation (CRE luciferase / Renilla) (fold of no-odor wells); higher = more activation. The conditions noted are these: 100 µM.
Take `COC(=O)c1ccccc1` [methyl benzoate]: the odorant receptor activation is 0.712 and 0.929. Consider `CCCCCCCOC(C)=O` [heptyl acetate], for which the odorant receptor activation is 1.1 and 1.16. Same read-out and setting: in the case of `COc1ccccc1O` [guaiacol] it was 1.02 and 1.26; in that of `CC(=O)OCC=C(C)CCC=C(C)C` [geranyl acetate], 0.922 and 1.18. With `CC(=O)OC1CC2CCC1(C)C2(C)C` (stereo not drawn) [isobornyl acetate], the odorant receptor activation is 0.929 and 1.29. The same measure, in the same setting: in the case of `CCCCCC(C)=O` [2-heptanone] it was 0.895 and 0.602; in that of `CCCCCOC(C)=O` [n-amyl acetate], 0.774 and 0.723. On the same count and under the same terms, in the case of `CC12C=CCC1C1CCC3CC(=O)CCC3(C)C1CC2` (stereo not drawn) [androstenone] it was 1.22. With `CCCCCCOC(=O)CCC` [hexyl butyrate], the odorant receptor activation is 0.934 and 0.969.

Take `CCC1(O)C2(C)CCC(C2)C1(C)C` (stereo not drawn) [2-ethylfenchol]: the odorant receptor activation was determined as 1.13.

For the compound `C=C(C)C1CC=CCC1` (stereo not drawn) [r-limonene], the odorant receptor activation was 0.806 and 0.782 and 0.756. Still for that read-out and setting: as for `CC1COCc2cc3c(cc21)C(C)(C)C(C)C3(C)C` (stereo not drawn) [galaxolide], the figure is 1.17 and 3.14.

`CC(C)CC(=O)O` [isovaleric acid] gave an odorant receptor activation of 0.825. Still for that read-out and setting: as for `CC12C=CCC1C1CCC3=CC(=O)CCC3(C)C1CC2` (stereo not drawn) [androstadienone], the figure is 1.13; as for `CC(C)(C)c1ccc(CCC=O)cc1` [bourgeonal], 1.02.

In turn, `O=C1CCCCCCCCCCCCCCO1` [pentadecalactone] registered an odorant receptor activation of 1.08.

As to `CC1=NC(C)SC1C` (stereo not drawn), the odorant receptor activation is 1.27 and 0.81. On the same count and under the same terms, as for `CCCCCC(=O)O` [caproic acid], the figure is 1.24; as for `CCCCCCCCCCC=O` [undecanal], 0.857. Turning to `O=C1CCCCC1` [Cyclohexanone], the odorant receptor activation is 0.761 and 0.78. On to `C=CCc1ccc(O)c(OC)c1` [eugenol], for which the odorant receptor activation is 1.28 and 0.959 and 1.07. For the compound `CCCCCCCC=CC=O` [2-decenal], the odorant receptor activation was 1.56. Regarding `CC(C)C=O` [isobutyraldehyde], the odorant receptor activation was 1.12 and 1.36. In turn, `c1cnccn1` [pyrazine] registered an odorant receptor activation of 0.768. On to `CC(=O)c1ccccc1` [acetophenone], for which the odorant receptor activation was 0.853 and 0.699. Same read-out and setting: as for `CC(C)C(=O)O` [isobutyric acid], the figure is 0.897 and 1.08.

The next assay concerns OR2Y1 V200L clone 1069. The assay is described as above. The conditions noted are these: 100 µM.
Take `COC(=O)c1ccccc1` [methyl benzoate]: the odorant receptor activation is 1.57. For the compound `CCCCCCCOC(C)=O` [heptyl acetate], the odorant receptor activation came out at 0.93. In turn, `COc1ccccc1O` [guaiacol] returned an odorant receptor activation of 2.62.

In turn, `CC(=O)OCC=C(C)CCC=C(C)C` [geranyl acetate] registered an odorant receptor activation of 1.96.

As for `CC(=O)OC1CC2CCC1(C)C2(C)C` (stereo not drawn) [isobornyl acetate], the odorant receptor activation is 0.827. `CCCCCC(C)=O` [2-heptanone] displayed an odorant receptor activation of 0.402.

`CCCCCOC(C)=O` [n-amyl acetate] gave an odorant receptor activation of 1.23.

As to `CC12C=CCC1C1CCC3CC(=O)CCC3(C)C1CC2` (stereo not drawn) [androstenone], the odorant receptor activation came to 1.95. `CCCCCCOC(=O)CCC` [hexyl butyrate] showed an odorant receptor activation of 1.54. In turn, `CCC1(O)C2(C)CCC(C2)C1(C)C` (stereo not drawn) [2-ethylfenchol] returned an odorant receptor activation of 2.2. Same read-out and setting: in the case of `C=C(C)C1CC=CCC1` (stereo not drawn) [r-limonene] it was 1.25 and 1.17. Regarding `CC1COCc2cc3c(cc21)C(C)(C)C(C)C3(C)C` (stereo not drawn) [galaxolide], the odorant receptor activation was 2.92.

For `CCCCCCC=O` [heptaldehyde], the odorant receptor activation is 0.797 and 1.62.

For the compound `CC(C)CC(=O)O` [isovaleric acid], the odorant receptor activation came to 1.42. `CC12C=CCC1C1CCC3=CC(=O)CCC3(C)C1CC2` (stereo not drawn) [androstadienone] gave an odorant receptor activation of 3.63. Take `CC(C)(C)c1ccc(CCC=O)cc1` [bourgeonal]: the odorant receptor activation worked out at 1.13. On to `O=C1CCCCCCCCCCCCCCO1` [pentadecalactone], for which the odorant receptor activation was 0.943. As to `CC1=NC(C)SC1C` (stereo not drawn), the odorant receptor activation was found to be 1.31. The same measure, in the same setting: as for `CCCCCC(=O)O` [caproic acid], the figure is 1.35; as for `CCCCCCCCCCC=O` [undecanal], 0.861. Compound `O=C1CCCCC1` [Cyclohexanone] had an odorant receptor activation of 0.741. `C=CCc1ccc(O)c(OC)c1` [eugenol]: the odorant receptor activation was 0.6 and 1.42. On to `CCCCCCCC=CC=O` [2-decenal], for which the odorant receptor activation stood at 4.15. Regarding `CC(C)C=O` [isobutyraldehyde], the odorant receptor activation is 1.07. With `c1cnccn1` [pyrazine], the odorant receptor activation came to 0.846. In turn, `CC(=O)c1ccccc1` [acetophenone] yielded an odorant receptor activation of 0.542. Same read-out and setting: as for `CC(C)C(=O)O` [isobutyric acid], the figure is 0.957.
